Laboratory results: patent US7528123B1, “Estrogenic estra-1,3,5(10)-trienes with differential effects on the alpha and beta estrogen receptors, having a linear hydrocarbon chain of from 5-9 carbon atoms in position 11” (N.V. Organon, priority 1998, dated 2009)

system: ERα and ERβ; experiment: Rating of ER affinity profile from the CHO-ERα and CHO-ERβ bioassays; format: cell-based, human; parameters: key: (−) means that it does not satisfy the ER affinity profile of the present invention; (+) means a compound according to the invention, i.e. an agonist for ERα and an antagonist for ERβ; details: ER affinity profile: agonist for ERα and antagonist for ERβ

Row | Structure (SMILES) | Rating
1 | C=CCC[C@H]1C[C@]2(C)[C@@H](O)CC[C@H]2[C@@H]2CCc3cc(O)ccc3[C@@H]12 [Compound 2] | −
2 | CCCCC[C@H]1C[C@]2(C)[C@@H](O)CC[C@H]2[C@@H]2CCc3cc(O)ccc3[C@@H]12 [Compound 11] | +
3 | C[C@]12C[C@H](CC=C3CC3)[C@@H]3c4ccc(O)cc4CC[C@H]3[C@@H]1CC[C@@H]2O [Compound 7] | −
4 | C#CCC[C@H]1C[C@]2(C)[C@@H](O)CC[C@H]2[C@@H]2CCc3cc(O)ccc3[C@@H]12 [Compound 4] | −
5 | C=CC[C@H]1C[C@]2(C)[C@@H](O)CC[C@H]2[C@@H]2CCc3cc(O)ccc3[C@@H]12 [Compound 1] | −
6 | C#CCCC[C@H]1C[C@]2(C)[C@@H](O)CC[C@H]2[C@@H]2CCc3cc(O)ccc3[C@@H]12 [Compound 6] | +
7 | CCCC[C@H]1C[C@]2(C)[C@@H](O)CC[C@H]2[C@@H]2CCc3cc(O)ccc3[C@@H]12 [Compound 10] | −
8 | C[C@]12C[C@H](CCC=C3CC3)[C@@H]3c4ccc(O)cc4CC[C@H]3[C@@H]1CC[C@@H]2O [Compound 8] | +
9 | CC#CCC[C@H]1C[C@]2(C)[C@@H](O)CC[C@H]2[C@@H]2CCc3cc(O)ccc3C12 (some centres unmarked) [Compound 5] | +
10 | CCC[C@H]1C[C@]2(C)[C@@H](O)CC[C@H]2[C@@H]2CCc3cc(O)ccc3[C@@H]12 [Compound 9] | −
11 | C=CCCC[C@H]1C[C@]2(C)[C@@H](O)CC[C@H]2[C@@H]2CCc3cc(O)ccc3[C@@H]12 [Compound 3] | +

Some results come without the dose or concentration used.
